This is one part of the list. Repeats are few or missing, and single values can be far off.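 Cells were imaged in 1,536-well plates, and nuclei stained with an antibody against cleaved PARP were counted against all DNA-stained nuclei to give the apoptosis fraction. Screening doses were chosen to leave most cells alive, and resting and induced cleaved-PARP levels differ strongly between cell lines.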
What was measured:
Test in all cases: cleaved PARP positive nuclei fraction relative to DMSO control; melanoma cells; higher = more apoptosis
Settings in all cases: library dose: low library concentration; 72 h
501Mel = tested on: 501Mel
A101D = tested on: A101D
A2058 = tested on: A2058
A375 = tested on: A375
C32 = tested on: C32
CBRC008 = tested on: CBRC008 (line from a melanoma biopsy)
CBRC014 = tested on: CBRC014 (line from a melanoma biopsy)
CBRC016 = tested on: CBRC016 (line from a melanoma biopsy)
CBRC017 = tested on: CBRC017 (line from a melanoma biopsy)
CBRC034 = tested on: CBRC034 (line from a melanoma biopsy)
COLO792 = tested on: COLO792
COLO800 = tested on: COLO800
COLO829 = tested on: COLO829
G361 = tested on: G361
IPC-298 = tested on: IPC-298
IST-MEL1 = tested on: IST-MEL1
LB2518-MEL = tested on: LB2518-MEL
LOXIMVI = tested on: LOXIMVI
MEL-HO = tested on: MEL-HO

SMILES | cleaved PARP positive nuclei fraction (501Mel) | cleaved PARP positive nuclei fraction (A101D) | cleaved PARP positive nuclei fraction (A2058) | cleaved PARP positive nuclei fraction (A375) | cleaved PARP positive nuclei fraction (C32) | cleaved PARP positive nuclei fraction (CBRC008) | cleaved PARP positive nuclei fraction (CBRC014) | cleaved PARP positive nuclei fraction (CBRC016) | cleaved PARP positive nuclei fraction (CBRC017) | cleaved PARP positive nuclei fraction (CBRC034) | cleaved PARP positive nuclei fraction (COLO792) | cleaved PARP positive nuclei fraction (COLO800) | cleaved PARP positive nuclei fraction (COLO829) | cleaved PARP positive nuclei fraction (G361) | cleaved PARP positive nuclei fraction (IPC-298) | cleaved PARP positive nuclei fraction (IST-MEL1) | cleaved PARP positive nuclei fraction (LB2518-MEL) | cleaved PARP positive nuclei fraction (LOXIMVI) | cleaved PARP positive nuclei fraction (MEL-HO)
C=C(c1ccc(C(=O)O)cc1)c1cc2c(cc1C)C(C)(C)CCC2(C)C [Bexarotene] + Nc1ccn([C@@H]2O[C@H](CO)[C@@H](O)C2(F)F)c(=O)n1 [gemcitabine] (first compound 2 µM, partner dose 0.0004 µM) | 84.1% | 81.8% | 80.6% | 155% | 119% | 280% | 109% | 230% | 141% | 39.9% | 95.8% | 61.1% | 102% | 163% | 62.4% | 166% | 227% | 82.6% | 161%
Nc1ncn([C@H]2C[C@H](O)[C@@H](CO)O2)c(=O)n1 [decitabine] + C#Cc1cccc(Nc2ncnc3cc(OCCOC)c(OCCOC)cc23)c1 [erlotinib] (first compound 0.1 µM, partner dose 0.8 µM) | 82.1% | 102% | 122% | 98.2% | 66.1% | 110% | 102% | 263% | 95.8% | 49.4% | 149% | 89.3% | 116% | 82.7% | 271% | 134% | 70.4% | 68.9% | 177%
Cc1cc(Nc2cc(N3CCN(C)CC3)nc(/C=C/c3ccccc3)n2)n[nH]1 + CO[C@H]1C[C@@H]2CC[C@@H](C)[C@@](O)(O2)C(=O)C(=O)N2CCCC[C@H]2C(=O)O[C@H]([C@H](C)C[C@@H]2CC[C@@H](OCCO)[C@H](OC)C2)CC(=O)[C@H](C)/C=C(\C)[C@@H](O)[C@@H](OC)C(=O)[C@H](C)C[C@H](C)/C=C/C=C/C=C/1C [everolimus] (first compound 0.04 µM, partner dose 0.02 µM) | 146% | 123% | 236% | 1040% | 85.6% | 448% | 84.8% | 116% | 151% | 161% | 84.8% | 77.5% | 354% | 271% | 381% | 111% | 319% | 44.9% | 69.4%
Nc1ccn([C@@H]2O[C@H](CO)[C@@H](O)C2(F)F)c(=O)n1 [gemcitabine] + OCc1c[nH]c2ccccc12 [Indole-3-carbinol] (first compound 0.0004 µM, partner dose 0.8 µM) | 97.7% | 52.1% | 79.7% | 146% | 81.8% | 35.6% | 208% | 184% | 141% | 34.7% | 131% | 70.3% | 95.7% | 14% | 151% | 64.7% | 61.7% | 152% | 177%
CS(=O)(=O)CCNCc1ccc(-c2ccc3ncnc(Nc4ccc(OCc5cccc(F)c5)c(Cl)c4)c3c2)o1 [lapatinib] + Nc1ncn([C@H]2C[C@H](O)[C@@H](CO)O2)c(=O)n1 [decitabine] (first compound 0.8 µM, partner dose 0.1 µM) | 196% | 355% | 143% | 21.2% | 70.7% | 97.3% | 99.9% | 71.9% | 119% | 36.6% | 150% | 79% | 70.6% | 120% | 61.3% | 45.7% | 103% | 53.2% | 94.9%
Cn1c(=O)n(-c2ccc(C(C)(C)C#N)cc2)c2c3cc(-c4cnc5ccccc5c4)ccc3ncc21 + O=C(O)c1ccc2c(c1)nc(Nc1cccc(Cl)c1)c1ccncc12 [CX4945] (first compound 0.004 µM, partner dose 0.4 µM) | 130% | 405% | 199% | 107% | 169% | 77.1% | 108% | 140% | 136% | 107% | 106% | 148% | 56.5% | 36.2% | 62.8% | 102% | 99.2% | 74.1% | 201%
Cc1cc(Nc2cc(N3CCN(C)CC3)nc(/C=C/c3ccccc3)n2)n[nH]1 + CC(=O)c1c(C)c2cnc(Nc3ccc(N4CCNCC4)cn3)nc2n(C2CCCC2)c1=O [palbociclib] (first compound 0.04 µM, partner dose 0.04 µM) | 95.8% | 111% | 89.1% | 218% | 85.2% | 59.5% | 133% | 65.3% | 95.2% | 55.5% | 84.3% | 141% | 42.8% | 93.7% | 98.4% | 70.5% | 69.8% | 211% | 38.1%
Cn1c(=O)n(-c2ccc(C(C)(C)C#N)cc2)c2c3cc(-c4cnc5ccccc5c4)ccc3ncc21 + Nc1ccn([C@@H]2O[C@H](CO)[C@@H](O)C2(F)F)c(=O)n1 [gemcitabine] (first compound 0.004 µM, partner dose 0.0004 µM) | 106% | 102% | 113% | 47.9% | 70.3% | 63.7% | 160% | 146% | 132% | 112% | 149% | 69.2% | 99.1% | 78.9% | 30.5% | 91.2% | 90.8% | 66.3% | 143%
C[C@@H](Oc1cc(-c2cnn(C3CCNCC3)c2)cnc1N)c1c(Cl)ccc(F)c1Cl [Crizotinib] + OCc1c[nH]c2ccccc12 [Indole-3-carbinol] (first compound 0.2 µM, partner dose 0.8 µM) | 94.8% | 129% | 81.2% | 77% | 120% | 52.7% | 80% | 68.2% | 106% | 60% | 66% | 45.9% | 70.9% | 83.7% | 58.7% | 33.8% | 55.1% | 106% | 98.1%
CS(=O)(=O)CCNCc1ccc(-c2ccc3ncnc(Nc4ccc(OCc5cccc(F)c5)c(Cl)c4)c3c2)o1 [lapatinib] + Nc1nc(F)nc2c1ncn2[C@@H]1O[C@H](CO)[C@@H](O)[C@@H]1O [fludarabine] (first compound 0.8 µM, partner dose 0.2 µM) | 9770% | 95.3% | 65.7% | 6920% | 69.2% | 112% | 109% | 34.7% | 120% | 25.7% | 67.7% | 128% | 112% | 130% | 133% | 32.6% | 103% | 48.7% | 39.3%
O=C(O)[C@@H]1[O][Sb](=[O])([O][Sb]2(=[O])[O][C@H]([C@H](O)CO)[C@H](O)[C@H](C(=O)O)[O]2)[O][C@H]([C@H](O)CO)[C@@H]1O (some centres undefined) [stibogluconate] + CCCS(=O)(=O)Nc1ccc(F)c(C(=O)c2c[nH]c3ncc(Cl)cc23)c1F [PLX4720] (first compound 2 µM, partner dose 0.08 µM) | 67.2% | 106% | 74.9% | 319% | 99.4% | 143% | 114% | 28.3% | 129% | 134% | 84.4% | 118% | 34.3% | 79.2% | 146% | 60.3% | 103% | 64.9% | 85.1%
CN1CCN(c2ccc3nc(-c4c(N)c5c(F)cccc5[nH]c4=O)[nH]c3c2)CC1 [Dovitinib] + CC(=O)c1c(C)c2cnc(Nc3ccc(N4CCNCC4)cn3)nc2n(C2CCCC2)c1=O [palbociclib] (first compound 0.1 µM, partner dose 0.04 µM) | 266% | 40.5% | 459% | 231% | 87.1% | 57.6% | 106% | 84.9% | 101% | 63% | 190% | 134% | 82.6% | 51.5% | 47.7% | 133% | 146% | 172% | 49.6%
CO[C@H]1C[C@@H]2CC[C@@H](C)[C@@](O)(O2)C(=O)C(=O)N2CCCC[C@H]2C(=O)O[C@H]([C@H](C)C[C@@H]2CC[C@@H](OCCO)[C@H](OC)C2)CC(=O)[C@H](C)/C=C(\C)[C@@H](O)[C@@H](OC)C(=O)[C@H](C)C[C@H](C)/C=C/C=C/C=C/1C [everolimus] + COc1ccc(Cl)c(Nc2nc3ccccc3nc2NS(=O)(=O)c2cccc(NC(=O)C(C)(C)N)c2)c1 [XL147] (first compound 0.02 µM, partner dose 0.8 µM) | 357% | 76% | 105% | 756% | 75.1% | 257% | 117% | 96.2% | 113% | 51.9% | 224% | 128% | 49.6% | 207% | 58.5% | 83% | 143% | 92.5% | 196%
CS(=O)(=O)CCNCc1ccc(-c2ccc3ncnc(Nc4ccc(OCc5cccc(F)c5)c(Cl)c4)c3c2)o1 [lapatinib] + OCc1c[nH]c2ccccc12 [Indole-3-carbinol] (first compound 0.8 µM, partner dose 0.8 µM) | 459% | 99.5% | 90.6% | 48.9% | 73.8% | 122% | 94.4% | 299% | 97.4% | 34% | 108% | 160% | 215% | 143% | 95.6% | 92.7% | 108% | 126% | 96%
Nc1nc(F)nc2c1ncn2[C@@H]1O[C@H](CO)[C@@H](O)[C@@H]1O [fludarabine] + Nc1ncn([C@H]2C[C@H](O)[C@@H](CO)O2)c(=O)n1 [decitabine] (first compound 0.2 µM, partner dose 0.1 µM) | 12600% | 101% | 69.4% | 3490% | 74.4% | 154% | 112% | 343% | 103% | 177% | 115% | 41.6% | 92.9% | 75% | 129% | 83.4% | 107% | 51.1% | 73.7%
O=C(O)c1ccc2c(c1)nc(Nc1cccc(Cl)c1)c1ccncc12 + CC(=O)c1c(C)c2cnc(Nc3ccc(N4CCNCC4)cn3)nc2n(C2CCCC2)c1=O [palbociclib] (first compound 0.4 µM, partner dose 0.04 µM) | 221% | 112% | 101% | 217% | 99.5% | 177% | 211% | 213% | 193% | 210% | 81.4% | 27.3% | 54.8% | 123% | 108% | 127% | 92.2% | 126% | 86.1%

Reprinted at random: 2 records from the list.
SMILES | cleaved PARP positive nuclei fraction (501Mel) | cleaved PARP positive nuclei fraction (A101D) | cleaved PARP positive nuclei fraction (A2058) | cleaved PARP positive nuclei fraction (A375) | cleaved PARP positive nuclei fraction (C32) | cleaved PARP positive nuclei fraction (CBRC008) | cleaved PARP positive nuclei fraction (CBRC014) | cleaved PARP positive nuclei fraction (CBRC016) | cleaved PARP positive nuclei fraction (CBRC017) | cleaved PARP positive nuclei fraction (CBRC034) | cleaved PARP positive nuclei fraction (COLO792) | cleaved PARP positive nuclei fraction (COLO800) | cleaved PARP positive nuclei fraction (COLO829) | cleaved PARP positive nuclei fraction (G361) | cleaved PARP positive nuclei fraction (IPC-298) | cleaved PARP positive nuclei fraction (IST-MEL1) | cleaved PARP positive nuclei fraction (LB2518-MEL) | cleaved PARP positive nuclei fraction (LOXIMVI) | cleaved PARP positive nuclei fraction (MEL-HO)
CS(=O)(=O)CCNCc1ccc(-c2ccc3ncnc(Nc4ccc(OCc5cccc(F)c5)c(Cl)c4)c3c2)o1 [lapatinib] + Nc1nc(F)nc2c1ncn2[C@@H]1O[C@H](CO)[C@@H](O)[C@@H]1O [fludarabine] (first compound 0.8 µM, partner dose 0.2 µM) | 9770% | 95.3% | 65.7% | 6920% | 69.2% | 112% | 109% | 34.7% | 120% | 25.7% | 67.7% | 128% | 112% | 130% | 133% | 32.6% | 103% | 48.7% | 39.3%
CS(=O)(=O)CCNCc1ccc(-c2ccc3ncnc(Nc4ccc(OCc5cccc(F)c5)c(Cl)c4)c3c2)o1 [lapatinib] + Nc1ncn([C@H]2C[C@H](O)[C@@H](CO)O2)c(=O)n1 [decitabine] (first compound 0.8 µM, partner dose 0.1 µM) | 196% | 355% | 143% | 21.2% | 70.7% | 97.3% | 99.9% | 71.9% | 119% | 36.6% | 150% | 79% | 70.6% | 120% | 61.3% | 45.7% | 103% | 53.2% | 94.9%

Reference: the supplement of paper PMC4604168 (melanoma cell lines)
